PubChem BioAssay AID1159578, Peter MacCallum Cancer Centre – 2015
Here is a random part of about 18,000 deposited reagents. In the full data, about 1,030 (5.7%) got an active call. 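Inactive calls also include pools with fewer than 3300 nuclei, whose migration was not assessed.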 The raw values are shown without normalisation. Not all columns of the deposit are shown. Reagent sequences are not shown.

- Screen: 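Knock-downs that alter how fast lymphatic endothelial cells migrate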 (primary screen)
- Cell system: human lymphatic endothelial cells
- Reagent: siRNA pool against human genes, 40 nM
- Time to read-out: 48 h after transfection
- Read-out: 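High-content imaging of dye-stained cells in a scratch assay measures filled wound area and nuclei per well; duplicate means given as ratio to mock and robust z-score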
- Reading the numbers: migration robust z-score: higher = faster migration into the scratch; nuclei per well: higher = more cells in the well
- Call rule: 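Migration changed when robust z exceeds 2 or falls below -2 and mean nuclei number is at least 3300; otherwise not called changed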
- Calls: active = migration changed; inactive = no migration change, or too few cells

The first 5 entries, to show the layout:
gene | migration robust z-score | migration class with cell-count check | nuclei per well, duplicate mean | Call
TBL1Y (GeneID 90665) | -1.15 | migration z between -2 and 2; enough cells | 5584 | inactive
CDK18 (GeneID 5129) | -2.31 | under 3300 nuclei; migration not judged | 3192 | inactive
PCDHB11 (GeneID 56125) | 0.14 | migration z between -2 and 2; enough cells | 5408 | inactive
IFT27 (GeneID 11020) | -0.05 | migration z between -2 and 2; enough cells | 6607 | inactive
SRGN (GeneID 5552) | 0.76 | migration z between -2 and 2; enough cells | 5054 | inactive

Results, from the start:
gene | migration robust z-score | migration class with cell-count check | nuclei per well, duplicate mean | Call
TBL1Y (GeneID 90665) | -1.15 | migration z between -2 and 2; enough cells | 5584 | inactive
CDK18 (GeneID 5129) | -2.31 | under 3300 nuclei; migration not judged | 3192 | inactive
PCDHB11 (GeneID 56125) | 0.14 | migration z between -2 and 2; enough cells | 5408 | inactive
IFT27 (GeneID 11020) | -0.05 | migration z between -2 and 2; enough cells | 6607 | inactive
SRGN (GeneID 5552) | 0.76 | migration z between -2 and 2; enough cells | 5054 | inactive
ABHD12B (GeneID 145447) | 0.26 | migration z between -2 and 2; enough cells | 5046 | inactive
PRAMEF10 (GeneID 343071) | 1.34 | migration z between -2 and 2; enough cells | 6559 | inactive
PAX6 (GeneID 5080) | 0.08 | migration z between -2 and 2; enough cells | 6025 | inactive
ZBTB33 (GeneID 10009) | -0.37 | migration z between -2 and 2; enough cells | 5236 | inactive
ARGFX (GeneID 503582) | -0.42 | migration z between -2 and 2; enough cells | 4976 | inactive
ZNF350 (GeneID 59348) | -1.09 | migration z between -2 and 2; enough cells | 5228 | inactive
DUSP22 (GeneID 56940) | -0.96 | migration z between -2 and 2; enough cells | 6386 | inactive
FLG (GeneID 2312) | -0.48 | migration z between -2 and 2; enough cells | 4876 | inactive
CEMIP (GeneID 57214) | 1.64 | migration z between -2 and 2; enough cells | 5376 | inactive
OR2J2 (GeneID 26707) | -0.34 | migration z between -2 and 2; enough cells | 5652 | inactive
ALKBH3 (GeneID 221120) | -0.41 | migration z between -2 and 2; enough cells | 6922 | inactive
KAT2B (GeneID 8850) | 1.12 | migration z between -2 and 2; enough cells | 5790 | inactive
ALLC (GeneID 55821) | 0.5 | migration z between -2 and 2; enough cells | 6086 | inactive
DNAJC19 (GeneID 131118) | -0.26 | migration z between -2 and 2; enough cells | 4833 | inactive
EPCAM (GeneID 4072) | 0.69 | migration z between -2 and 2; enough cells | 5840 | inactive
KLRG2 (GeneID 346689) | -1.92 | migration z between -2 and 2; enough cells | 6245 | inactive
GJC3 (GeneID 349149) | -2.35 | migration z below -2; enough cells | 4141 | active
ENPP7 (GeneID 339221) | -1.3 | migration z between -2 and 2; enough cells | 5646 | inactive
TP53BP2 (GeneID 7159) | -0.34 | migration z between -2 and 2; enough cells | 3730 | inactive
MGAT4A (GeneID 11320) | 1.48 | migration z between -2 and 2; enough cells | 5978 | inactive
FOXO4 (GeneID 4303) | -0.68 | migration z between -2 and 2; enough cells | 6191 | inactive
NUTF2 (GeneID 10204) | 1.06 | migration z between -2 and 2; enough cells | 5218 | inactive
SCARF2 (GeneID 91179) | 1.56 | migration z between -2 and 2; enough cells | 5999 | inactive
SYNE3 (GeneID 161176) | -1.36 | migration z between -2 and 2; enough cells | 4314 | inactive
IGLL1 (GeneID 3543) | 2.48 | migration z above 2; enough cells | 6103 | active
KRTAP11-1 (GeneID 337880) | 1.45 | migration z between -2 and 2; enough cells | 8010 | inactive
CDH4 (GeneID 1002) | -0.71 | migration z between -2 and 2; enough cells | 5944 | inactive
PANX2 (GeneID 56666) | -1.4 | migration z between -2 and 2; enough cells | 4344 | inactive
VMA21 (GeneID 203547) | 0.54 | migration z between -2 and 2; enough cells | 5646 | inactive
TGFBR2 (GeneID 7048) | -2.67 | migration z below -2; enough cells | 4013 | active
EMC9 (GeneID 51016) | -0.54 | migration z between -2 and 2; enough cells | 5348 | inactive
PRKCSH (GeneID 5589) | -0.5 | migration z between -2 and 2; enough cells | 4140 | inactive
CCDC66 (GeneID 285331) | -0.38 | migration z between -2 and 2; enough cells | 4769 | inactive
OR52J3 (GeneID 119679) | -0.96 | migration z between -2 and 2; enough cells | 3658 | inactive
TSHR (GeneID 7253) | 0.44 | migration z between -2 and 2; enough cells | 6239 | inactive
WBP4 (GeneID 11193) | -1.48 | migration z between -2 and 2; enough cells | 5506 | inactive
CDX4 (GeneID 1046) | 0.73 | migration z between -2 and 2; enough cells | 6017 | inactive
GFPT2 (GeneID 9945) | 0.57 | migration z between -2 and 2; enough cells | 5933 | inactive
CDC42EP2 (GeneID 10435) | 1.04 | migration z between -2 and 2; enough cells | 5828 | inactive
FGGY (GeneID 55277) | -0.1 | migration z between -2 and 2; enough cells | 8081 | inactive
RASAL3 (GeneID 64926) | 0.97 | migration z between -2 and 2; enough cells | 6284 | inactive
MNAT1 (GeneID 4331) | -0.42 | migration z between -2 and 2; enough cells | 4687 | inactive
STRN4 (GeneID 29888) | 0.16 | migration z between -2 and 2; enough cells | 6382 | inactive
SLC24A3 (GeneID 57419) | -0.18 | migration z between -2 and 2; enough cells | 5920 | inactive
CMKLR1 (GeneID 1240) | -0.8 | migration z between -2 and 2; enough cells | 5266 | inactive
ABHD12 (GeneID 26090) | -0.18 | migration z between -2 and 2; enough cells | 6274 | inactive
ZNF214 (GeneID 7761) | 0.28 | migration z between -2 and 2; enough cells | 7365 | inactive
IL2RB (GeneID 3560) | 0.96 | migration z between -2 and 2; enough cells | 5502 | inactive
STAG3L1 (GeneID 54441) | 0.07 | migration z between -2 and 2; enough cells | 5376 | inactive
IMMP1L (GeneID 196294) | -1.48 | migration z between -2 and 2; enough cells | 5243 | inactive
LIPE (GeneID 3991) | -0.52 | migration z between -2 and 2; enough cells | 5422 | inactive
PERP (GeneID 64065) | 0.55 | migration z between -2 and 2; enough cells | 6124 | inactive
